# Source: the supplement of paper PMC8728848
# Some of the results follow.
# B1: PX9937I-bfa-538-26-538 (Bacteroides fragilis) (protein)
# chain: DKLDLSPIDYYGSGSYWKTEAQATAYIDGIHKHLRDAAWQHTITFGELRGGRFITGASSDGMGVSNGDIILQNFDETHTGVSKFGDLFGRITNLNLFIARVTDATYLSDEMKNFYLGEVYGLRAFYYFDLYRIYGGVPLRLTADVVEGVIDPNKLYMARSTPKEVMTQIKSDLNKSMEYFGNMNDFDPYKRGKKVYWSKAATECLMGEVYLWTSKVTTGDDVANPADLTIAKTHLESVLNNYNLKMLDDFSQVFNAKNKANDEIIFAIRFLEGEATNSNGTFTYNVGTGSTKNRYQANGEVFGDALDIQNTGNQTYEYNKAVYQNFDDADTRKEATFIASYNKDGKTGELSLYGTHVRKNIGYVNAQGARVYCGDYIFYRLPWVYLTLAEIANMEGDNAAVAKYINLVRKRAYGNAWDETLYAYPETADFTTNELAILHEKDKEFIQEGQRWWDLRRMTLTKGGTPLVFCKEGSLLGDAPILNKSTEAHKLLWPIEKTMLNKDPALEQTPGYK
# What was measured:
# Test in all cases: glycan array binding signal (z-score within array); higher = stronger binding
# Conditions in all cases: glycan notation: IUPAC condensed, linker removed
# [1] = target: Fuc(a1-2)[Gal(a1-3)]Gal(b1-4)GlcNAc(b1-2)Man(a1-3)[Fuc(a1-2)[Gal(a1-3)]Gal(b1-4)GlcNAc(b1-2)Man(a1-6)]Man(b1-4)GlcNAc(b1-4)[Fuc(a1-6)]GlcNAc
# Outline: (§1)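 Glycan array data came from 3228 arrays in the Consortium for Functional Glycomics database, and only arrays with an available protein sequence were kept. Glycan names were put into IUPAC-condensed notation, and columns mapping to the same glycan were averaged. The binding signal is a within-array Z-score, averaged across arrays of one protein sequence run at different concentrations or buffers and across linkers. A negative Z-score can be read as non-binding.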
# [2] = target: Fuc(a1-2)[Gal(a1-3)]Gal(b1-4)GlcNAc(b1-3)GalNAc
# Outline: as §1
# [3] = target: Fuc(a1-2)[Gal(a1-3)]Gal(b1-4)GlcNAc(b1-3)[Fuc(a1-2)[Gal(a1-3)]Gal(b1-4)GlcNAc(b1-6)]GalNAc
# Outline: as §1
# [4] = target: Fuc(a1-2)[Gal(a1-3)]Gal(b1-4)GlcNAc(b1-6)GalNAc
# Outline: as §1
# [5] = target: Fuc(a1-2)[Gal(a1-3)]Gal(b1-4)[Fuc(a1-3)]Glc
# Outline: as §1
# [6] = target: Fuc(a1-2)[Gal(a1-3)]Gal(b1-4)[Fuc(a1-3)]GlcNAc
# Outline: as §1
# [7] = target: Fuc(a1-2)[Gal(a1-3)]Gal(b1-4)[Fuc(a1-3)]GlcNAc(b1-3)GalNAc
# Outline: as §1
# [8] = target: Fuc(a1-2)[Gal(a1-4)]Gal(b1-4)GlcNAc
# Outline: as §1
# [9] = target: Fuc(a1-2)[GalNAc(a1-3)]Gal
# Outline: as §1
# [10] = target: Fuc(a1-2)[GalNAc(a1-3)]Gal(b1-3)GalNAc(a1-3)[Fuc(a1-2)]Gal(b1-4)GlcNAc
# Outline: as §1
# [11] = target: Fuc(a1-2)[GalNAc(a1-3)]Gal(b1-3)GalNAc(b1-3)Gal(a1-4)Gal(b1-4)Glc
# Outline: as §1
# [12] = target: Fuc(a1-2)[GalNAc(a1-3)]Gal(b1-3)GlcNAc
# Outline: as §1
# [13] = target: Fuc(a1-2)[GalNAc(a1-3)]Gal(b1-3)GlcNAc(b1-2)Man(a1-3)[Fuc(a1-2)[GalNAc(a1-3)]Gal(b1-3)GlcNAc(b1-2)Man(a1-6)]Man(b1-4)GlcNAc(b1-4)GlcNAc
# Outline: as §1
# [14] = target: Fuc(a1-2)[GalNAc(a1-3)]Gal(b1-3)GlcNAc(b1-2)Man(a1-3)[Fuc(a1-2)[GalNAc(a1-3)]Gal(b1-3)GlcNAc(b1-2)Man(a1-6)]Man(b1-4)GlcNAc(b1-4)[Fuc(a1-6)]GlcNAc
# Outline: as §1
# [15] = target: Fuc(a1-2)[GalNAc(a1-3)]Gal(b1-3)GlcNAc(b1-3)GalNAc
# Outline: as §1
# [16] = target: Fuc(a1-2)[GalNAc(a1-3)]Gal(b1-3)GlcNAc(b1-6)GalNAc
# Outline: as §1
# [17] = target: Fuc(a1-2)[GalNAc(a1-3)]Gal(b1-4)Glc
# Outline: as §1
# [18] = target: Fuc(a1-2)[GalNAc(a1-3)]Gal(b1-4)GlcNAc
# Outline: as §1
# [19] = target: Fuc(a1-2)[GalNAc(a1-3)]Gal(b1-4)GlcNAc(b1-2)Man
# Outline: as §1
# [20] = target: Fuc(a1-2)[GalNAc(a1-3)]Gal(b1-4)GlcNAc(b1-2)Man(a1-3)[Fuc(a1-2)[GalNAc(a1-3)]Gal(b1-4)GlcNAc(b1-2)Man(a1-6)]Man(b1-4)GlcNAc(b1-4)GlcNAc
# Outline: as §1
# [21] = target: Fuc(a1-2)[GalNAc(a1-3)]Gal(b1-4)GlcNAc(b1-2)Man(a1-3)[Fuc(a1-2)[GalNAc(a1-3)]Gal(b1-4)GlcNAc(b1-2)Man(a1-6)]Man(b1-4)GlcNAc(b1-4)[Fuc(a1-6)]GlcNAc
# Outline: as §1
# [22] = target: Fuc(a1-2)[GalNAc(a1-3)]Gal(b1-4)GlcNAc(b1-3)Gal(b1-4)GlcNAc
# Outline: as §1
# [23] = target: Fuc(a1-2)[GalNAc(a1-3)]Gal(b1-4)GlcNAc(b1-3)Gal(b1-4)GlcNAc(b1-3)Gal(b1-4)GlcNAc
# Outline: as §1
# [24] = target: Fuc(a1-2)[GalNAc(a1-3)]Gal(b1-4)GlcNAc(b1-3)GalNAc
# Outline: as §1
# [25] = target: Fuc(a1-2)[GalNAc(a1-3)]Gal(b1-4)GlcNAc(b1-3)[Fuc(a1-2)[GalNAc(a1-3)]Gal(b1-4)GlcNAc(b1-6)]GalNAc
# Outline: as §1
# [26] = target: Fuc(a1-2)[GalNAc(a1-3)]Gal(b1-4)GlcNAc(b1-6)GalNAc
# Outline: as §1
# [27] = target: Fuc(a1-2)[GalNAc(a1-3)]Gal(b1-4)[Fuc(a1-3)]GlcNAc
# Outline: as §1
# [28] = target: Fuc(a1-2)[GalNAc(a1-3)]Gal(b1-4)[Fuc(a1-3)]GlcNAc(b1-3)GalNAc
# Outline: as §1
# [29] = target: Fuc(a1-2)[GalNAc(a1-4)]Gal(b1-4)GlcNAc
# Outline: as §1
# [30] = target: Fuc(a1-2)[GalNAc(b1-3)]Gal
# Outline: as §1
# Fuc(a1-3)GlcNAc = target: Fuc(a1-3)GlcNAc
# Outline: as §1
# [31] = target: Fuc(a1-3)[Gal(b1-4)]Glc6S
# Outline: as §1
# [32] = target: Fuc(a1-3)[Gal(b1-4)]GlcNAc
# Outline: as §1
# [33] = target: Fuc(a1-3)[Gal(b1-4)]GlcNAc(b1-2)Man
# Outline: as §1
# [34] = target: Fuc(a1-3)[Gal(b1-4)]GlcNAc(b1-2)Man(a1-3)[Fuc(a1-3)[Gal(b1-4)]GlcNAc(b1-2)Man(a1-6)]Man(b1-4)GlcNAc(b1-4)GlcNAc
# Outline: as §1
# [35] = target: Fuc(a1-3)[Gal(b1-4)]GlcNAc(b1-2)Man(a1-3)[Fuc(a1-3)[Gal(b1-4)]GlcNAc(b1-2)Man(a1-6)]Man(b1-4)GlcNAc(b1-4)[Fuc(a1-6)]GlcNAc
# Outline: as §1
# [36] = target: Fuc(a1-3)[Gal(b1-4)]GlcNAc(b1-3)Gal(b1-3)[Fuc(a1-4)]GlcNAc
# Outline: as §1
# [37] = target: Fuc(a1-3)[Gal(b1-4)]GlcNAc(b1-3)Gal(b1-4)[Fuc(a1-3)]GlcNAc
# Outline: as §1
# [38] = target: Fuc(a1-3)[Gal(b1-4)]GlcNAc(b1-3)Gal(b1-4)[Fuc(a1-3)]GlcNAc(b1-3)Gal(b1-4)[Fuc(a1-3)]GlcNAc
# Outline: as §1
# [39] = target: Fuc(a1-3)[Gal(b1-4)]GlcNAc(b1-3)GalNAc
# Outline: as §1
# [40] = target: Fuc(a1-3)[Gal(b1-4)]GlcNAc(b1-6)GalNAc
# Outline: as §1
# [41] = target: Fuc(a1-3)[Gal(b1-4)]GlcNAc(b1-6)[Gal(b1-3)GlcNAc(b1-3)]Gal(b1-4)Glc
# Outline: as §1
# [42] = target: Fuc(a1-3)[Gal(b1-4)]GlcNAc6S
# Outline: as §1
# [43] = target: Fuc(a1-3)[Gal3S(b1-4)]Glc
# Outline: as §1
# [44] = target: Fuc(a1-3)[Gal3S(b1-4)]GlcNAc
# Outline: as §1
# [45] = target: Fuc(a1-3)[Gal3S(b1-4)]GlcNAc6S
# Outline: as §1
# [46] = target: Fuc(a1-3)[GalNAc(b1-4)]GlcNAc
# Outline: as §1
# [47] = target: Fuc(a1-3)[GalNAc(b1-4)]GlcNAc6S
# Outline: as §1
# Fuc(a1-4)GlcNAc = target: Fuc(a1-4)GlcNAc
# Outline: as §1
# Fuc(b1-3)GlcNAc = target: Fuc(b1-3)GlcNAc
# Outline: as §1
# Gal(a1-2)Gal = target: Gal(a1-2)Gal
# Outline: as §1
# Gal(a1-3)Gal = target: Gal(a1-3)Gal
# Outline: as §1
# Gal(a1-3)Gal(b1-3)GlcNAc = target: Gal(a1-3)Gal(b1-3)GlcNAc
# Outline: as §1
# [48] = target: Gal(a1-3)Gal(b1-3)GlcNAc(b1-2)Man
# Outline: as §1
# [49] = target: Gal(a1-3)Gal(b1-3)GlcNAc(b1-2)Man(a1-3)[Gal(a1-3)Gal(b1-3)GlcNAc(b1-2)Man(a1-6)]Man(b1-4)GlcNAc(b1-4)GlcNAc
# Outline: as §1
# [50] = target: Gal(a1-3)Gal(b1-3)GlcNAc(b1-3)GalNAc
# Outline: as §1
# [51] = target: Gal(a1-3)Gal(b1-3)GlcNAc(b1-6)GalNAc
# Outline: as §1
# [52] = target: Gal(a1-3)Gal(b1-3)[Fuc(a1-4)]GlcNAc(b1-2)Man(a1-3)[Gal(a1-3)Gal(b1-3)[Fuc(a1-4)]GlcNAc(b1-2)Man(a1-6)]Man(b1-4)GlcNAc(b1-4)GlcNAc
# Outline: as §1
# Gal(a1-3)Gal(b1-4)Glc = target: Gal(a1-3)Gal(b1-4)Glc
# Outline: as §1
# Gal(a1-3)Gal(b1-4)GlcNAc = target: Gal(a1-3)Gal(b1-4)GlcNAc
# Outline: as §1
binder,measurement,setting,value
B1,glycan array binding signal (z-score),[1],-0.191
same,glycan array binding signal (z-score),[2],0.748
same,glycan array binding signal (z-score),[3],-0.413
same,glycan array binding signal (z-score),[4],0.089
same,glycan array binding signal (z-score),[5],0.262
same,glycan array binding signal (z-score),[6],-0.326
same,glycan array binding signal (z-score),[7],-0.404
same,glycan array binding signal (z-score),[8],-0.539
same,glycan array binding signal (z-score),[9],-0.759
same,glycan array binding signal (z-score),[10],-1.37
same,glycan array binding signal (z-score),[11],-0.303
same,glycan array binding signal (z-score),[12],-0.231
same,glycan array binding signal (z-score),[13],-0.077
same,glycan array binding signal (z-score),[14],-0.728
same,glycan array binding signal (z-score),[15],0.524
same,glycan array binding signal (z-score),[16],-0.421
same,glycan array binding signal (z-score),[17],-0.366
same,glycan array binding signal (z-score),[18],-0.064
same,glycan array binding signal (z-score),[19],-0.539
same,glycan array binding signal (z-score),[20],0.566
same,glycan array binding signal (z-score),[21],-0.4
same,glycan array binding signal (z-score),[22],-0.891
same,glycan array binding signal (z-score),[23],0.731
same,glycan array binding signal (z-score),[24],-0.541
same,glycan array binding signal (z-score),[25],-0.539
same,glycan array binding signal (z-score),[26],0.845
same,glycan array binding signal (z-score),[27],0.412
same,glycan array binding signal (z-score),[28],2.1
same,glycan array binding signal (z-score),[29],1.66
same,glycan array binding signal (z-score),[30],-0.317
same,glycan array binding signal (z-score),Fuc(a1-3)GlcNAc,-0.104
same,glycan array binding signal (z-score),[31],0.068
same,glycan array binding signal (z-score),[32],-0.402
same,glycan array binding signal (z-score),[33],-0.738
same,glycan array binding signal (z-score),[34],3.92
same,glycan array binding signal (z-score),[35],0.188
same,glycan array binding signal (z-score),[36],2.12
same,glycan array binding signal (z-score),[37],0.002
same,glycan array binding signal (z-score),[38],-0.05
same,glycan array binding signal (z-score),[39],-0.545
same,glycan array binding signal (z-score),[40],0.465
same,glycan array binding signal (z-score),[41],0.684
same,glycan array binding signal (z-score),[42],-0.898
same,glycan array binding signal (z-score),[43],1.07
same,glycan array binding signal (z-score),[44],0.026
same,glycan array binding signal (z-score),[45],-0.028
same,glycan array binding signal (z-score),[46],1.19
same,glycan array binding signal (z-score),[47],-0.039
same,glycan array binding signal (z-score),Fuc(a1-4)GlcNAc,0.593
same,glycan array binding signal (z-score),Fuc(b1-3)GlcNAc,-0.173
same,glycan array binding signal (z-score),Gal(a1-2)Gal,-0.306
same,glycan array binding signal (z-score),Gal(a1-3)Gal,-0.371
same,glycan array binding signal (z-score),Gal(a1-3)Gal(b1-3)GlcNAc,0.142
same,glycan array binding signal (z-score),[48],-0.156
same,glycan array binding signal (z-score),[49],0.317
same,glycan array binding signal (z-score),[50],-0.097
same,glycan array binding signal (z-score),[51],0.142
same,glycan array binding signal (z-score),[52],3.11
same,glycan array binding signal (z-score),Gal(a1-3)Gal(b1-4)Glc,0.57
same,glycan array binding signal (z-score),Gal(a1-3)Gal(b1-4)GlcNAc,-0.994

# Laid out differently: entries from further up.
binder	measurement	setting	value
B1	glycan array binding signal (z-score)	[6]	-0.326
same	glycan array binding signal (z-score)	[28]	2.1
same	glycan array binding signal (z-score)	[42]	-0.898
